These results are taken from the supplement of paper PMC11348887.

Each structure is given as a SMILES string. Counter-ions that a name gives are not always drawn. This is one part of the list. Most entries show no effect beyond the scatter of the controls.

The test has as its system hPSC-derived cortical neurons (WA09). As to the kind of experiment: KCl-induced FOS+/EGR-1+ double-positive nuclei fraction z-score (KCl minus unstimulated); higher = stronger activity-induced IEG response. As to conditions: 5 µM; treatment: days 7-14 after plating, readout day 21.
On to `CC1CC(OC(=O)C(O)c2ccccc2)CC(C)(C)C1` (stereo not drawn) [Cyclandelate], for which the “KCl-induced FOS+/EGR-1+ double-positive nuclei fraction z-score” value was -0.457.

Regarding `CCc1c(C(=O)NCCc2ccc(N3CCCCC3)cc2)[nH]c2ccc(Cl)cc12`, the “KCl-induced FOS+/EGR-1+ double-positive nuclei fraction z-score” value stood at 1.13.

Regarding `COc1ncc(-c2ccc3nccc(-c4ccnnc4)c3c2)cc1NS(=O)(=O)c1ccc(F)cc1F`, the “KCl-induced FOS+/EGR-1+ double-positive nuclei fraction z-score” value stood at 1.13.

For the compound `NCc1c[nH]c(=S)n1[C@H]1CCc2c(F)cc(F)cc2C1` [Nepicastat (SYN-117) HCl], the “KCl-induced FOS+/EGR-1+ double-positive nuclei fraction z-score” value is -0.0378.

As for `Cc1cc(/N=N/c2ccc(S(=O)(=O)Nc3ccccn3)cc2)c(N)cc1O`, the “KCl-induced FOS+/EGR-1+ double-positive nuclei fraction z-score” value was -0.246.

For the compound `CC1=C(CC(=O)O)c2cc(F)ccc2/C1=C\c1ccc([S+](C)[O-])cc1` (stereo not drawn) [Sulindac], the “KCl-induced FOS+/EGR-1+ double-positive nuclei fraction z-score” value turned out to be 0.101.

Regarding `CC1(C)S[C@@H]2[C@H](NC(=O)[C@H](N)c3ccc(O)cc3)C(=O)N2[C@H]1C(=O)O` [Amoxicillin], the “KCl-induced FOS+/EGR-1+ double-positive nuclei fraction z-score” value was determined as 0.831.

Regarding `COc1ccc(C(=O)c2ccccc2O)c(O)c1` [2,2_-Dihydroxy-4-methoxybenzophenone], the “KCl-induced FOS+/EGR-1+ double-positive nuclei fraction z-score” value was determined as 0.649.

Take `Cc1cccc(-c2[nH]c(CNc3ccccc3F)nc2-c2ccc3ncnn3c2)n1`: the “KCl-induced FOS+/EGR-1+ double-positive nuclei fraction z-score” value is -0.122.

As to `CN(CCOc1ccc(CC2SC(=O)NC2=O)cc1)c1ccccn1` (stereo not drawn) [Rosiglitazone], the “KCl-induced FOS+/EGR-1+ double-positive nuclei fraction z-score” value came to 0.647.

On to `O=C(Nc1cccc(Cl)c1)c1ccccn1`, for which the “KCl-induced FOS+/EGR-1+ double-positive nuclei fraction z-score” value came out at 0.112.

For the compound `CN1CCN(c2ccc(OC(F)(F)F)c(Nc3ncc4c(n3)-c3c(c(C(N)=O)nn3CCO)CC4)c2)CC1`, the “KCl-induced FOS+/EGR-1+ double-positive nuclei fraction z-score” value was -0.316.

In the case of `C#Cc1cccc(Nc2ncnc3cc(OCCOC)c(OCCOC)cc23)c1` [Erlotinib], the “KCl-induced FOS+/EGR-1+ double-positive nuclei fraction z-score” value was -0.253.

For `COc1ccccc1N1CCN(CC(O)COc2cccc3ccccc23)CC1` (stereo not drawn) [Naftopidil DiHCl], the “KCl-induced FOS+/EGR-1+ double-positive nuclei fraction z-score” value was -0.142.

As for `NC[C@H]1O[C@H](O[C@H]2[C@H](O)[C@@H](O[C@H]3O[C@H](CO)[C@@H](O)[C@H](N)[C@H]3O)[C@H](N)C[C@@H]2N)[C@H](O)[C@@H](O)[C@@H]1O` [Kanamycin sulfate], the “KCl-induced FOS+/EGR-1+ double-positive nuclei fraction z-score” value came out at 0.112.

As to `CC(=O)Oc1cc(C(F)(F)F)ccc1C(=O)O` [Triflusal], the “KCl-induced FOS+/EGR-1+ double-positive nuclei fraction z-score” value was -0.696.

On to `COc1cc(-c2ncn(/C=C\C(=O)OC(C)C)n2)cc(C(F)(F)F)c1`, for which the “KCl-induced FOS+/EGR-1+ double-positive nuclei fraction z-score” value is 0.0442.

As for `CCCc1cc(C(N)=S)ccn1` [Protionamide], the “KCl-induced FOS+/EGR-1+ double-positive nuclei fraction z-score” value was -0.764.

On to `O=S(=O)(O)NC1CCCCC1` [Cyclamic  acid], for which the “KCl-induced FOS+/EGR-1+ double-positive nuclei fraction z-score” value is -1.3.

Regarding `CCN(CCCOc1ccc2c(Nc3cc(CC(=O)Nc4cccc(F)c4)[nH]n3)ncnc2c1)CCOP(=O)(O)O` [Barasertib (AZD1152-HQPA)], the “KCl-induced FOS+/EGR-1+ double-positive nuclei fraction z-score” value was -0.312.

For `CC(C)(C)OC(=O)Nc1ccc(-c2cc(C(=O)NCCCCCCC(=O)NO)no2)cc1`, the “KCl-induced FOS+/EGR-1+ double-positive nuclei fraction z-score” value is -1.21.

As for `O=C(O)CCC(=O)Nc1ccc(S(=O)(=O)Nc2nccs2)cc1` [Succinylsulfathiazole], the “KCl-induced FOS+/EGR-1+ double-positive nuclei fraction z-score” value came to 1.47.

As to `CCCS(=O)(=O)Nc1ccc(F)c(C(=O)c2c[nH]c3ncc(-c4ccc(Cl)cc4)cc23)c1F` [Vemurafenib (PLX4032_ RG7204)], the “KCl-induced FOS+/EGR-1+ double-positive nuclei fraction z-score” value amounted to 0.572.
